From article PMC11894074
Like-named read-outs stand apart in the source and are kept apart here. These are yes or no findings as the source states them, for the method shown. In cells and extracts the contact can be indirect. A yes stands for co-enrichment or nearness to the bait. Other partners may have been found.

By UniProt entry, the sequences of proteins in these tests, tags left out. Residues count along the entry.
UniProt P35869, residues 11-848: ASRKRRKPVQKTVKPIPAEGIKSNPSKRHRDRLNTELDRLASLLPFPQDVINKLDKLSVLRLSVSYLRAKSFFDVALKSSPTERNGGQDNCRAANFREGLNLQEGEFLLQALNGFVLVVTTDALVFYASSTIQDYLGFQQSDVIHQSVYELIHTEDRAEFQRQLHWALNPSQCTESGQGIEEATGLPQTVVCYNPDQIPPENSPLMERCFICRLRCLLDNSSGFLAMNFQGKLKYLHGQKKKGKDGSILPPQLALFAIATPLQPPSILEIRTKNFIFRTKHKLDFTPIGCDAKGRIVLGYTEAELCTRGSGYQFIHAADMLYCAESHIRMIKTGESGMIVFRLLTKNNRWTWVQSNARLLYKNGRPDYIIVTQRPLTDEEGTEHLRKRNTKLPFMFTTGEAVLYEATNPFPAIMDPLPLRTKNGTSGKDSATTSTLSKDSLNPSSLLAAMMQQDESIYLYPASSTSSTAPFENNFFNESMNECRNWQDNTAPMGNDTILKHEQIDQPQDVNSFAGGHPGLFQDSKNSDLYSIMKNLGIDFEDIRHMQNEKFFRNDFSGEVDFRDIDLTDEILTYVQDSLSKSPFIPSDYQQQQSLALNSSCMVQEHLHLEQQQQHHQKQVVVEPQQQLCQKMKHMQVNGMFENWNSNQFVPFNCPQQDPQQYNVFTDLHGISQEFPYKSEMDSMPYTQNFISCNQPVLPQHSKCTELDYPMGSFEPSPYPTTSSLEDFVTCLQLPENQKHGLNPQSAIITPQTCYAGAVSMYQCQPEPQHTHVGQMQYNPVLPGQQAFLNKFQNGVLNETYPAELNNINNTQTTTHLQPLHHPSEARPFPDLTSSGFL

T1: aldo-keto reductase family 1 member C1 (AKR1C1) (human (endogenous in QBC939)) (UniProt Q04828)
T1 sequence: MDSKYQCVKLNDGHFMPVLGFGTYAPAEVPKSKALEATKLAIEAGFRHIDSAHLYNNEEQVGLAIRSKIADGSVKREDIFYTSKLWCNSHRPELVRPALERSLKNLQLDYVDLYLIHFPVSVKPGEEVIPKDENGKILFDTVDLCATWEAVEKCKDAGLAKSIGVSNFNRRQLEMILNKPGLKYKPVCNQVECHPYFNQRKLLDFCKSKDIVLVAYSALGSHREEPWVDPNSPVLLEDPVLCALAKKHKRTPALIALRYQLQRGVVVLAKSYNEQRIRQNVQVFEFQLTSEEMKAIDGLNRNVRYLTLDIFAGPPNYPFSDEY

B1: cytochrome P450 1B1 (CYP1B1) (enzyme, UniProt Q16678 1-543)
chain: MGTSLSPNDPWPLNPLSIQQTTLLLLLSVLATVHVGQRLLRQRRRQLRSAPPGPFAWPLIGNAAAVGQAAHLSFARLARRYGDVFQIRLGSCPIVVLNGERAIHQALVQQGSAFADRPAFASFRVVSGGRSMAFGHYSEHWKVQRRAAHSMMRNFFTRQPRSRQVLEGHVLSEARELVALLVRGSADGAFLDPRPLTVVAVANVMSAVCFGCRYSHDDPEFRELLSHNEEFGRTVGAGSLVDVMPWLQYFPNPVRTVFREFEQLNRNFSNFILDKFLRHCESLRPGAAPRDMMDAFILSAEKKAAGDSHGGGARLDLENVPATITDIFGASQDTLSTALQWLLLLFTRYPDVQTRVQAELDQVVGRDRLPCMGDQPNLPYVLAFLYEAMRFSSFVPVTIPHATTANTSVLGYHIPKDTVVFVNQWSVNHDPLKWPNPENFDPARFLDKDGLINKDLTSRVMIFSVGKRRCIGEELSKMQLFLFISILAHQCDFRANPNEPAKMNFSYGLTIKPKSFKVNVTLRESMELLDSAVQNLQAKETCQ

What was measured:
[1] = biological target: T1, aldo-keto reductase family 1 member C1 (AKR1C1) (human (endogenous in QBC939)); test: affinity purification with mass spectrometry; Co-IP of AKR1C1 followed by LC-MS/MS to identify potential binding proteins; cells and antibody not stated
[2] = biological target: T1, aldo-keto reductase family 1 member C1 (AKR1C1) (human (endogenous in QBC939)); test: as above; remark: listed apart in the source

Molecule	binding [1]	binding [2]
aryl-hydrocarbon receptor (AHR) (from UniProt P35869 11-848)	binds	–
B1	–	binds
